# Results published in patent US20150246136A1 (priority 2011, published 2015).
# Test: general procedure: solution-phase peptide synthesis; HATU/DIPEA or EDC/HOBt/DIPEA
# Conditions: trifluoroacetate
Substance,step yield (late stage modification step),further results
"N-(3-carboxypropyl)-N-methyl-L-valyl-N-[(3R,4S,5S)-3-methoxy-1-{(2S)-2-[(1R,2R)-1-methoxy-2-methyl-3-{[(2S)-1-(1,2-oxazinan-2-yl)-1-oxo-3-phenylpropan-2-yl]amino}-3-oxopropyl]pyrrolidin-1-yl}-5-methyl-1-oxoheptan-4-yl]-N-methyl-L-valinamide",70% of theory,
Boc-Intermediate 55,,step yield (coupling step): 81% of theory
"N-(3-carboxypropyl)-N-methyl-L-valyl-N-[(3R,4S,5S)-1-{(2S)-2-[(1R,2R)-3-{[(2S)-1-(benzyloxy)-1-oxo-3-phenylpropan-2-yl]amino}-1-methoxy-2-methyl-3-oxopropyl]pyrrolidin-1-yl}-3-methoxy-5-methyl-1-oxoheptan-4-yl]-N-methyl-L-valinamide",39% of theory,
"N-(3-carboxypropyl)-N-methyl-L-valyl-N-[(3R,4S,5S)-1-{(2S)-2-[(1R,2R)-3-{[(2S)-1-(adamantan-1-ylmethoxy)-1-oxo-3-phenylpropan-2-yl]amino}-1-methoxy-2-methyl-3-oxopropyl]pyrrolidin-1-yl}-3-methoxy-5-methyl-1-oxoheptan-4-yl]-N-methyl-L-valinamide",73% of theory,
"N-(3-aminopropyl)-N-methyl-L-valyl-N-[(3R,4S,5S)-3-methoxy-1-{(2S)-2-[(1R,2R)-1-methoxy-2-methyl-3-{[(1S,2R)-1-(1,2-oxazinan-2-ylcarbonyl)-2-phenylcyclopropyl]amino}-3-oxopropyl]pyrrolidin-1-yl}-5-methyl-1-oxoheptan-4-yl]-N-methyl-L-valinamide",,"step yield (late stage modification step, over two stages): 41% of theory over two stages"
"N-(3-carboxypropyl)-N-methyl-L-valyl-N-[(3R,4S,5S)-1-{(2S)-2-[(1R,2R)-3-{[(2S)-1-(benzyloxy)-3-phenylpropan-2-yl]amino}-1-methoxy-2-methyl-3-oxopropyl]pyrrolidin-1-yl}-3-methoxy-5-methyl-1-oxoheptan-4-yl]-N-methyl-L-valinamide",65% of theory,
